PubChem BioAssay AID1224828 | NIAID, 2016

Test: 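Find genes required for NF-kappaB p65 moving into the nucleus after LPS in mouse macrophages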 (primary screen)
System: mouse RAW264.7 G9 macrophage reporter cells (GFP-p65, Tnf promoter-mCherry)
Knock-down reagent: siRNA pool against mouse genes, 100 nM
Time to read-out: 2 days siRNA transfection, then 40 min LPS before fixation
Treatment: LPS (Salmonella minnesota R595) at 10 ng/ml
Measured: 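Imaged p65 nuclear translocation ratio, normalised to the plate median, converted to robust z-scores and averaged across two replicates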
Scale: p65 translocation robust z-score: higher = more nuclear NF-kappaB p65 after LPS than the plate median; nuclear/cytoplasmic p65 ratio: higher = more nuclear NF-kappaB p65
Rule for the call: 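Active if robust z is above 3.3 (negative regulators) or below -1.56, the Tlr4 control median (positive regulators); activity score 50 or more; control wells not called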
Meaning of the calls: active = hit (p65 shift raised or lowered); inactive = no clear change
The deposit covers about 17,000 reagents; this is a part drawn at random. 762 of all reagents (4.5%) were called active. 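Active calls include both raised and lowered p65 entry, mostly lowered; wells with fewer than 50 cells lack a z-score.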 Raw values vary from plate to plate and are shown uncorrected.

The opening 3 records, ahead of the listing:
gene,p65 translocation robust z-score,"nuclear/cytoplasmic p65 ratio, rep 1","nuclear/cytoplasmic p65 ratio, rep 2",low cell count flag,activity call
Mok,0.12,1.67,1.42,enough cells to score,inactive
Or9m2,-1.1,1.55,1.37,enough cells to score,inactive
Pdhx,-0.87,1.43,1.21,enough cells to score,inactive

Main list, from the start:
gene,p65 translocation robust z-score,"nuclear/cytoplasmic p65 ratio, rep 1","nuclear/cytoplasmic p65 ratio, rep 2",low cell count flag,activity call
Mok,0.12,1.67,1.42,enough cells to score,inactive
Or9m2,-1.1,1.55,1.37,enough cells to score,inactive
Pdhx,-0.87,1.43,1.21,enough cells to score,inactive
Irf6,-1.45,1.21,1.26,enough cells to score,inactive
Htr1d,-0.23,1.5,1.52,enough cells to score,inactive
Epn3,,1.04,1.21,fewer than 50 cells per well; well left out of scoring,inactive
Adamtsl3,-0.27,1.65,1.52,enough cells to score,inactive
Eif2s3x,,1.18,1.06,fewer than 50 cells per well; well left out of scoring,inactive
E330037G11Rik,1.36,1.65,1.36,enough cells to score,inactive
Whr1,0.02,1.67,1.41,enough cells to score,inactive
Xlr5c,-0.85,1.24,1.21,enough cells to score,inactive
Hp1bp3,-0.15,1.55,1.54,enough cells to score,inactive
Neo1,-0.29,1.39,1.32,enough cells to score,inactive
Mlec,0.33,1.36,1.59,enough cells to score,inactive
Ptdss2,-2.83,1.01,1.11,enough cells to score,active
Cmklr2,-0.46,1.45,1.5,enough cells to score,inactive
Phyh,-0.4,1.42,1.38,enough cells to score,inactive
Or10aa1,0.54,1.61,1.25,enough cells to score,inactive
Fanci,0.69,1.77,1.86,enough cells to score,inactive
Crygd,-0.69,1.43,1.24,enough cells to score,inactive
Sp3,0.1,1.52,1.61,enough cells to score,inactive
Dhrs13,0.04,1.41,1.42,enough cells to score,inactive
Apln,0.29,1.55,1.64,enough cells to score,inactive
Smr2,-0.58,1.4,1.17,enough cells to score,inactive
Ass1,-0.18,1.58,1.59,enough cells to score,inactive
Sowahd,0.43,1.45,1.58,enough cells to score,inactive
Psmd10,0.09,1.16,1.23,enough cells to score,inactive
Man2a2,1.49,1.88,1.82,enough cells to score,inactive
Cars1,-0.16,1.47,1.86,enough cells to score,inactive
Sec61a2,0.93,1.51,1.38,enough cells to score,inactive
Slx9,0.72,1.19,1.51,enough cells to score,inactive
Odf4,-0.44,1.64,1.47,enough cells to score,inactive
Sycp3,1.07,1.47,1.34,enough cells to score,inactive
Lrrk1,-1.36,1.56,1.3,enough cells to score,inactive
Uhmk1,1.7,2,1.55,enough cells to score,inactive
Mageb2,0.34,1.8,1.57,enough cells to score,inactive
Plin2,-0.22,1.55,1.67,enough cells to score,inactive
Magea9-ps,-0.7,1.58,1.46,enough cells to score,inactive
Spdye4b,,1.26,1.23,fewer than 50 cells per well; well left out of scoring,inactive
Fam162a,0.33,1.38,1.37,enough cells to score,inactive
Pold2,-0.41,1.32,1.18,enough cells to score,inactive
Eva1b,,1.05,1.66,fewer than 50 cells per well; well left out of scoring,inactive
Bbox1,1.05,1.75,2.01,enough cells to score,inactive
Troap,0.85,1.61,1.64,enough cells to score,inactive
Ccdc7a,-0.43,1.23,1.24,enough cells to score,inactive
D3Ertd751e,1.31,1.44,1.44,enough cells to score,inactive
Get1,-0.24,1.51,1.22,enough cells to score,inactive
Stx7,-0.85,1.23,1.2,enough cells to score,inactive
Sfmbt2,0.04,1.51,1.26,enough cells to score,inactive
Cd300lb,0.97,1.56,1.5,enough cells to score,inactive
H2bc21,,1.08,1.36,fewer than 50 cells per well; well left out of scoring,inactive
Gpm6a,1.01,1.75,1.73,enough cells to score,inactive
Srsf2,-0.7,1.42,1.48,enough cells to score,inactive
Hic2,0.7,1.56,1.66,enough cells to score,inactive
Noa1,-1.26,1.36,1.29,enough cells to score,inactive
9430019C24Rik,1.51,1.64,1.75,enough cells to score,inactive
Irx4,-0.72,1.35,1.31,enough cells to score,inactive
Gm20555,,1.7,1.42,fewer than 50 cells per well; well left out of scoring,inactive
Ppp4c,0.89,1.62,1.49,enough cells to score,inactive
Cdc42se1,0.59,1.58,1.69,enough cells to score,inactive
Adgrl1,0.09,1.45,1.67,enough cells to score,inactive
Timm50,1.05,1.8,1.74,enough cells to score,inactive
Parp14,1.38,1.84,2.02,enough cells to score,inactive
Gmds,2.11,2.05,1.77,enough cells to score,inactive
Fkbp4,1.14,1.58,1.52,enough cells to score,inactive
Bcas1,0.02,1.57,1.67,enough cells to score,inactive
Slc30a7,,2.12,1.16,fewer than 50 cells per well; well left out of scoring,inactive
Galnt17,1.57,1.6,1.45,enough cells to score,inactive
Ldah,,2.4,1.41,fewer than 50 cells per well; well left out of scoring,inactive
Scoc,0.09,1.45,1.21,enough cells to score,inactive
Ngb,-0.34,1.55,1.7,enough cells to score,inactive
Prune2,0,1.37,1.54,enough cells to score,inactive
Vars2,0.64,1.47,1.3,enough cells to score,inactive
Lilra6,-1,1.28,1.08,enough cells to score,inactive
Hbb-b1,1.01,1.87,1.62,enough cells to score,inactive
